Results as given in the supplement of paper PMC6078165.

Tested on: MDAMB436
Assay: relative JC-1 red fluorescence (viability) vs pre-drug, coculture with fibroblast (fraction); higher = more viable cancer cells
Experimental: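 JC-1 labelled TNBC cells cocultured 1:1 (1,500 cells each) with CellTrace Violet stained primary or stromal fibroblasts in 384-well plates in FluoroBrite medium, treated with one of 42 anticancer drugs at 0.1, 1, 10 or 100 uM. JC-1 red fluorescence (mitochondrial integrity in cancer cells only) was read by plate reader every 8 h for 72 h. Values are normalised to each well's pre-drug value. The stock of one drug was tenfold lower, so its dose labels may be too high.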

C[C@]12CC[C@@H]3c4ccc(O)cc4C[C@@H](CCCCCCCCC[S+]([O-])CCCC(F)(F)C(F)(F)F)[C@H]3[C@@H]1CC[C@@H]2O (stereo partly drawn) [Fulvestrant]
relative JC-1 red fluorescence
Settings | 8 h | 16 h | 24 h | 32 h | 40 h | 48 h | 56 h | 64 h | 72 h
10 µM, coculture fibroblast: C12385 | 0.902 | 0.863 | 0.843 | 0.745 | 0.703 | 0.689 | 0.656 | 0.644 | 0.625
10 µM, coculture fibroblast: H6013 | 0.971 | 0.953 | 0.902 | 0.906 | 0.881 | 0.885 | 0.865 | 0.85 | 0.828
10 µM, coculture fibroblast: H6019 | 0.868 | 0.842 | 0.826 | 0.788 | 0.775 | 0.772 | 0.75 | 0.738 | 0.727
10 µM, coculture fibroblast: H6076 | 0.9294 | 0.896 | 0.8123 | 0.761 | 0.714 | 0.71 | 0.721 | 0.741 | 0.733
10 µM, coculture fibroblast: H6231 | 0.9386 | 0.978 | 0.978 | 0.906 | 0.948 | 0.915 | 0.935 | 0.981 | 0.9857
10 µM, coculture fibroblast: HADF | 0.865 | 0.955 | 0.941 | 0.912 | 0.928 | 0.906 | 0.829 | 0.911 | 0.838
10 µM, coculture fibroblast: HCFa | 0.951 | 0.9469 | 0.887 | 0.848 | 0.826 | 0.828 | 0.793 | 0.81 | 0.783
10 µM, coculture fibroblast: HCPF | 0.969 | 0.777 | 0.748 | 0.9261 | 0.949 | 0.894 | 0.948 | 0.829 | 0.881
10 µM, coculture fibroblast: HHSteC | 0.948 | 0.905 | 0.927 | 0.909 | 0.91 | 0.798 | 0.878 | 0.868 | 0.826
10 µM, coculture fibroblast: HMF | 0.952 | 0.9093 | 0.838 | 0.7508 | 0.709 | 0.68 | 0.6453 | 0.6268 | 0.631
10 µM, coculture fibroblast: HPFa | 0.958 | 0.926 | 0.848 | 0.7859 | 0.741 | 0.724 | 0.641 | 0.602 | 0.536
10 µM, coculture fibroblast: HUF | 0.919 | 0.84 | 0.791 | 0.725 | 0.674 | 0.635 | 0.607 | 0.585 | 0.571
10 µM, coculture fibroblast: Hs5 | 0.891 | 0.86 | 0.807 | 0.715 | 0.677 | 0.658 | 0.658 | 0.636 | 0.617
10 µM, coculture fibroblast: Hs27A | 0.942 | 0.84 | 0.897 | 0.883 | 0.835 | 0.864 | 0.788 | 0.778 | 0.74
10 µM, coculture fibroblast: Hs343T | 0.92 | 0.917 | 0.835 | 0.757 | 0.709 | 0.687 | 0.676 | 0.676 | 0.662
10 µM, coculture fibroblast: WS1 | 0.8785 | 0.8255 | 0.797 | 0.716 | 0.676 | 0.659 | 0.626 | 0.602 | 0.586
100 µM, coculture fibroblast: C12385 | 0.936 | 0.892 | 0.865 | 0.923 | 0.868 | 0.911 | 0.917 | 0.846 | 0.917
100 µM, coculture fibroblast: H6013 | 0.921 | 0.951 | 0.931 | 0.938 | 0.914 | 0.938 | 0.907 | 0.888 | 0.856
100 µM, coculture fibroblast: H6019 | 0.896 | 0.78 | 0.897 | 0.795 | 0.767 | 0.873 | 0.787 | 0.875 | 0.865
100 µM, coculture fibroblast: H6076 | 0.887 | 0.986 | 0.814 | 0.972 | 0.947 | 0.91 | 0.915 | 0.931 | 0.954
100 µM, coculture fibroblast: H6231 | 0.731 | 0.8 | 0.825 | 0.816 | 0.786 | 0.821 | 0.819 | 0.757 | 0.914
100 µM, coculture fibroblast: HADF | 0.8026 | 0.935 | 0.937 | 0.937 | 0.867 | 0.952 | 0.854 | 0.821 | 0.806
100 µM, coculture fibroblast: HCFa | 0.97 | 0.95 | 0.94 | 0.932 | 0.908 | 0.947 | 0.8824 | 0.918 | 0.874
100 µM, coculture fibroblast: HCPF | 0.896 | 0.804 | 0.817 | 0.741 | 0.738 | 0.803 | 0.799 | 0.85 | 0.782
100 µM, coculture fibroblast: HHSteC | 0.931 | 0.936 | 0.912 | 0.885 | 0.858 | 0.869 | 0.802 | 0.7874 | 0.7393
100 µM, coculture fibroblast: HMF | 0.728 | 0.888 | 0.9284 | 0.892 | 0.867 | 0.848 | 0.841 | 0.85 | 0.86
100 µM, coculture fibroblast: HPFa | 0.93327 | 0.91 | 0.874 | 0.839 | 0.818 | 0.822 | 0.743 | 0.71 | 0.64
100 µM, coculture fibroblast: HUF | 0.97 | 0.934 | 0.952 | 0.912 | 0.892 | 0.874 | 0.864 | 0.862 | 0.861
100 µM, coculture fibroblast: Hs5 | 0.764 | 0.95672 | 0.921 | 0.867 | 0.839 | 0.815 | 0.812 | 0.799 | 0.81
100 µM, coculture fibroblast: Hs27A | 0.971 | 0.946 | 0.933 | 0.924 | 0.871 | 0.79 | 0.833 | 0.823 | 0.77
100 µM, coculture fibroblast: Hs343T | 0.762 | 0.864 | 0.895 | 0.94 | 0.909 | 0.875 | 0.8584 | 0.846 | 0.839
100 µM, coculture fibroblast: WS1 | 0.925 | 0.922 | 0.7658 | 0.894 | 0.867 | 0.875 | 0.846 | 0.904 | 0.918

Values are relative to the signal before dosing, not to a vehicle control; the signal also falls without drug.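 Fibroblast labels denote human fibroblasts, mainly primary ones from uterus (C12385, HUF), lung (H6013), bone (Hs27A), adrenal (HADF) and skin (WS1), plus mammary HMF and breast cancer-associated Hs343T. Cancer cells are basal-like or mesenchymal-like triple-negative breast cancer lines. A hit is a response shift exceeding 3x replicate standard deviation. The tissue of the other fibroblasts is not given here.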
